Patent US8936806B2, “Periostin induces proliferation of cardiomyocytes and promotes cardiac regeneration” (Children's Medical Center Corporation, priority 2007, dated 2015)
At least one compound was matched to its structure with a doubt left.

System: primary neonatal rat ventricular cardiomyocytes
Experiment: DNA synthesis, mitosis and cytokinesis in primary neonatal rat ventricular cardiomyocytes
Format: cell-based
Conditions: U0126 10 μM, PD98059 1 μM, LY294002 10 μM, Wortmannin 0.1 μM
Excerpt: Primary neonatal rat ventricular cardiomyocytes were isolated using the Neomyts kit (Cellutron, Highland Park, N.J.), seeded at a density of 10^5 cells/cm^2 onto gelatin-coated cover slips, stimulated for 3 days, and labeled with BrdU for the terminal 2 days. Primary adult ventricular cardiomyocytes were isolated from male (300 gm) Wistar rats (Charles River Laboratories) and maintained as described (Engel, F. B. et al. p38 MAP kinase inhibition enables proliferation of adult mammalian cardiomyocytes. Genes Dev 19, 1175-87 (2005)). Adult cardiomyocytes were stimulated daily for 9 days and labeled with 30 μM BrdU for the terminal 3 days. Cardiomyocytes were stimulated with periostin (500 ng/mL) and FGF (100 ng/mL). Inhibiting antibodies were added at a concentration of 10 μg/mL, cRGD at 10 μM, U0126 at 10 μM, PD98059 at 1 μM, LY294002 at 10 μM, and Wortmannin at 0.1 μM 30 min prior to stimulation. The vehicle used to dissolve factors or chemicals was added to unstimulated samples, which were then processed together with the test samples.
DNA-synthesis was analyzed by visualization of BrdU uptake and cytokinesis was determined by detection of the cleavage furrow and the midbody with an antibody against aurora B kinase as described (Engel, F. B. et al. p38 MAP kinase inhibition enables proliferation of adult mammalian cardiomyocytes. Genes Dev 19, 1175-87 (2005)). […]

COC[C@H]1OC(=O)c2coc3c2[C@@]1(C)C1=C(C3=O)[C@@H]2CCC(=O)[C@@]2(C)C[C@H]1OC(C)=O [Wortmannin] was tested, and the “inhibition of periostin-stimulated DNA synthesis by ERK and PI3-kinase inhibitors” value was “inhibited only by blocking Akt activation”.
